From PMC9313110, “Modulating the Fibrillization of Parathyroid-Hormone (PTH) Peptides: Azo-Switches as Reversible and Catalytic Entities” (Biomedicines, 2022) come the findings set out here.

The structures appear in SMILES notation. Residues, ends and D or L forms follow the SMILES beside them.

The data set in a line: Negative stain transmission electron microscopy (TEM) of aggregates. Type of data set: physicochemical. The conditions noted are these: 100 μM, 37 °C.

In the case of `CC(C)C[C@H](NC(=O)[C@H](C)NC(=O)[C@@H](NC(=O)[C@H](Cc1ccccc1)NC(=O)[C@H](CC(N)=O)NC(=O)[C@H](Cc1c[nH]cn1)NC(=O)[C@@H](NC(=O)[C@H](CC(=O)O)NC(=O)[C@H](CCC(N)=O)NC(=O)[C@H](CC(C)C)NC(=O)[C@H](CCCCN)NC(=O)[C@H](CCCCN)NC(=O)[C@@H](N)CCCNC(=N)N)C(C)C)C(C)C)C(=O)O` [PTH25–37] (H-RKKLQDVHNFVAL-OH), where the note is “50 mM Na2HPO4, pH 7.4”, the “size of single fibrils by TEM after 20 h” value is more than 6 μm. The “aggregate morphology by TEM after 20 h” value (50 mM Na2HPO4, pH 7.4, negative stain) is recorded as “amyloid fibrils”.
